# Results published in patent publication US20080009448A1, “Peptide Derivative” (priority 2006, published 2008).
# At least one peptide structure holds a part that was inferred or is arguable (an end, a ring closure or a residue). Some of these results come from one statement about several compounds together.
# Experiments:
# [1] = test system: pressure stimulation; experiment: Tail-pressure test; type: in vivo, mouse
# [2] = test system: heat nociceptive stimulation; experiment: Anti-nociceptive activity test, tail-flick method; type: in vivo, mouse
# Method: (1) Experimental animal, male ddy mice (Japan SLC), weighing the body weight in the range of 22 to 25 g, were used for the studies. The animals had been kept under constant conditions (room temperature 22±2° C., humidity 55±5%, 12 hours light-and-dark cycle having light time 9:00 to 21:00 and dark time 21:00 to 9:00) until used for an experiment. The animals were fed the mouse solid diet (F2, Funabashi farm. Funabashi, Japan) with unrestricted tap water intake.
# SS8225-01, 02, 03 04, 05, 06, 07 and 08 as examples and SS8225-09, 10, 11 and 12 as comparison examples were used as the administered drugs. […] In addition only Liger solution was administered as an experimental control. The animals were left for 60 minutes in the plastic cage to become familiar to the environment prior to the test in which measured a latent time for each mouse before drug administration in accordance with a tail-flick method noted below. Heat was radiated to a part of each mouse tail which is 2 cm from the end of its tail. Each of heat radiation periods before beginning of tail-flick was measured as a false pain threshold. Mice which responded to the stimulation within 2.5 to 3.5 seconds were pre-selected for the test. Administration solution under one administration condition for one kind of drug was administered to one experimental animal group including 10 mice. After the body weight of each mouse was measured, each volume of the administration solution was adjusted to be 0.1 mL/10 g of mouse body weight and then the solution was administered. The administration methods were two methods of subcutaneous administration (s. c.) and oral administration (p. o.). On subcutaneous administration, the administration solution of 0.1 mL per 10 g of body weight (0.1 mL/10 g) was injected into the back of the mouse using 27 gauge needle. On oral administration, the administration solution of 0.1 mL per 10 g of body weight (0.1 mL/10 g) was administered using an oral sonde.
# Heat was radiated to a part of each mouse's tail of respective experimental group, which is 2 cm from the end of its tail, at 15, 30 and 60 minutes after the drug administration according to the preset measurement interval and a latent time until respective mouse swung its tail was measured as a false pain threshold value. The maximum stimulation period (cut-off-time) was set as 10 seconds to minimize the damage to the stimulation part. The anti-nociceptive effect was evaluated quantitatively by calculating % MPE (% of maximum possible effect) according to the following formula. [formula] T1: A latent time until beginning of tail-flick before respective drug administration (seconds) T2: A latent time until beginning of tail-flick after respective drug administration (seconds) Tc: A maximum stimulation period (cut-off-time)
# The graphs (FIG. 1, FIG. 3, FIG. 5, FIG. 7, FIG. 9, FIG. 11, FIG. 13, FIG. 15, FIG. 17, FIG. 19, FIG. 21, FIG. 23, FIG. 25, FIG. 27, FIG. 29, FIG. 31, FIG. 33 and FIG. 35) showing a time-course variation of % MPE were created, in which a vertical axis is an average value with a standard error (means ±S. E. M.) obtained by calculation of % MPE of respective animals of 10 mice every administration condition of respective drugs and a horizontal axis is a time after administration. After treating % MPE data of each animal of experimental groups with respective doses and % MPE data of each animal of the experimental group with a control Ringer's solution at the same measurement time every drugs using the two-way layout dispersion analysis (two-way ANOVA), the hazard-ratio of P<0.05 was decided to be a significant difference according to Bonferroni post-test.
# A lasting time of anti-nociceptive activity of each drug in the present description is the lasting time of anti-nociceptive activity under the dose condition providing the longest lasting time.
# ED50 is represented in the unit of mg/Kg.
# [3] = test system: nerve damage model animal; experiment: Allodynia experiment, nerve damage model (partial sciatic nerve ligation), Von Frey filament method; type: in vivo, mouse
# Method: Further the anti-nociceptive activity test using a nerve damage model envisioning a neuropathic pain was performed.
# Preparation of the Nerve-Damage Model was Conducted According to the model created by Seltzer (partial sciatic nerve ligation: RSL model).
# Specifically the amount of 0.1 mL/10 g of Nembutal solution 7 times diluted with Ringer's solution (Fuso Pharmaceutical Kogyo) was injected into the peritoneal cavity of mouse using 26 gauge needle (Termo) to give anesthetic. The animal was lain on its stomach, its femoral skin was cut open to incise through the fascia, the part between the heads of the biceps femoris was cut and then its sciatic nerve was fixed. The ⅓ to ½ part of the […] around the sciatic nerve detached without damaging was completely ligated with a nylon suture thread No. 9 (Natsume Seisakusho) using a vascular needle 000 spring hole (Natsume Seisakusho). Further the cut skin was sutured with the silk thread No. 2 (Natsume Seisakusho) using a surgical needle 1 spring needle (Natsume Seisakusho). […]
# Further, for comparison, the left lower leg of the animal without nerve-damage was also stimulated and the threshold values were measured. AUCs (the area surrounded with the time-reaction curve and the base line of a graph showing the relationship between the time after administration (time-course) and % MPE) were calculated from the obtained results. […]
# [4] = test system: inflammatory pain model; experiment: Rheumatoid arthritis / inflammatory pain model (CFA), Von Frey filament method; type: in vivo, mouse; conditions: for total AUC value / unit-time AUC value: 14 mg/Kg orally
# Method: (§1) Experimental animal, male ddy type mice (Nihon SLC), weighing the body weight in the range of 15 to 20 g, were used for the studies. The animals had been kept under constant conditions (room temperature 23±1° C., humidity 52±2%, 12 hours light-and-dark cycle having light time 7:00 to 19:00 and dark time 19:00 to 7:00) until used for an experiment. The animals were fed the mouse solid diet (F2, Funabashi farm. Funabashi, Japan) with unrestricted tap water intake, and kept in captivity for at least more than two days in a laboratory.
# A mouse was firmly fixed without anesthesia and 25 μL of Complete Freund's Adjuvant (CFA) using a number 30 guage needle (Termo) was subcutaneously administered into the dorsum of left hind foot to provide an inflammatory pain model. The model was kept under the conditions noted above until used for the test.
# Measurement of anti-nociceptive activity on the inflammatory pain model was conducted according to Von Fray filament method as well as on never damaged model 5 days after CFA administration. The drugs were orally administered.
# The anti-nociceptive activity is represented as a unit AUC value (AUC/min) which is the total AUC value or AUC divided by the measurement time and compared to study. ED50 of the anti-nociceptive activity was calculated by reducing the measurement value to a percentage of the upper limit which was set as 2.0 for the unit AUC.
# [5] = test system: MSU induced knee osteoarthritis pain; experiment: MSU induced knee osteoarthritis pain model, hind leg paw-pressure ratio; type: in vivo, rat; parameters: key to AUC of time-course variation of anti-nociceptive activity: AUC of the time course of anti-nociceptive activity as % MPE
# Method: as §1, with “SD” for “ddy”, “rats,” for “mice (Nihon SLC),”, “170” for “15”, “190” for “20”
# Any test drugs were dissolved in Ringer's solution (Fuso Yakuhin) to be used.
# MSU was suspended with the suspension solution (10% of polyoxyethylene sorbitan mono-oleate (Tween 80: Nakarai Tesk) as 0.1 g per 1 mL. The animal was anesthetized with diethyl ether and after the surface of its left hind leg knee joint was wiped with 70% ethanol cotton, a porous administration of the suspension solution above noted was conducted into the cavity of let hind leg knee joint.
# Pressures to both hind leg paw were measured using a paw-pressure measurement apparatus and recorded. Measurement time at respective times was 4.5 seconds. Calculated paw-pressure ratio (ppr) is a value calculated by dividing the pressure on the left hind leg by the pressure on the right hind leg according to the measured pressures on both hind legs.
# The anti-nociceptive effect was evaluated quantitatively by calculating % MPE (% of maximum possible effect) according to the following formula. [formula]
# In the formula, ppr 0 and ppr 1 are respective paw-pressure ratios on both hind legs before and after administration. ED50 value of anti-nociceptive activity was calculated using GraphPad Prism data-graph processing software version 4.0, San Diego, Calif., USA.
# The strength of anti-nociceptive activity was represented by calculating the time-course variation of anti-nociceptive activity AUC using GraphPad Prism noted above.
# Paw-pressure was measured twice at 4 hours after administration to provide ppr by calculation and the average of those values was both hind leg paw-pressure ratio before the drug administration. After the measurement of both hind leg paw-pressure before the drug administration, 0.1 mL of Ringer's solution or a test drug in Ringer's solution per 100 g rat body weight was orally administered, and then a paw-pressure was measured once every unit time after the oral administration.
# Statistical processing was conducted using GraphPad Prism. After the two-way layout dispersion analysis, the hazard-ratio of P<0.05 was decided to be a significant difference according to Bonferroni post-test. The hazard-ratios were distinguished into less than 5% (P<0.05) and less than 1% (P<0.01) and represented as “*” and “**” in the same manner conducted for the Tail-flick method.
compound,measurement,setting,value
"CC(=N)N[C@@H](Cc1ccc(O)cc1)C(=O)N[C@H](CC[S+](C)[O-])C(=O)N[C@@H](Cc1ccccc1)C(=O)N(C)CCC(N)=O (stereo partly drawn) [SS8225-04, Iminoethyl-[Tyr]-[D-Met(O)]-[Phe]-[N-MeβAla]-NH2]","dosage providing the same AUC, as part of morphine dosage","[1]; either oral or subcutaneous administration (FIG. 67, 68)",one hundredth through one twentieth
same,lasting period of anti-nociceptive activities,[1]; p.o.,more than 12 hours
same,lasting period of anti-nociceptive activities,[1]; s.c.,more than 6 hours
same,"dosage providing the same AUC, as part of morphine dosage","[2]; AUC of %MPE vs time, either oral or subcutaneous administration (FIG. 37, 38)",a half through one fiftieth
same,activity-peak time after the oral administration,"[2]; mice, p.o.",180 h
same,Oral ED50,"[2]; mice, p.o., at activity-peak time, parentheses = 95% confidence limit",2.53 mg/kg
same,activity-peak time after the subcutaneous administration,"[2]; mice, s.c.",90 min
same,Subcutaneous ED50,"[2]; mice, s.c., at activity-peak time, parentheses = 95% confidence limit",0.05 mg/kg
same,lasting time of anti-nociceptive activity,"[2]; p.o., dose of 10 mg/Kg",not less than 10 hours
same,lasting time of anti-nociceptive activity,"[2]; s.c., dose of 0.125 mg/Kg",7 h
same,lasting period of anti-nociceptive activity compared with morphine,"[3]; nerve damage model, s.c., at dose of equal activity",about twice longer
same,anti-allodynia effect in animals with ligated sciatic nerve,"[3]; s.c. administration, Von Frey filament",decrease of anti-allodynia effect was not observed at any doses
same,total AUC value,[4]; CFA administered foot,577
same,unit-time AUC value,[4]; CFA administered foot,0.814 AUC/min
same,ED50 of the anti-nociceptive activity calculated using the unit-time AUC value,"[4]; CFA administered foot, oral",17.04 mg/kg
same,"dosage providing the same AUC, as part of morphine dosage","[4]; CFA model, oral, FIG. 83",one hundredth and one fiftieth
same,"dosage providing the same unit-time AUC, as part of morphine dosage","[4]; CFA model, oral, FIG. 84",one eighth and one fourth
same,total AUC values at 14 mg/Kg compared with the values for 100 mg/Kg of morphine,"[4]; CFA model, oral, both feet",twice
same,total AUC value,[4]; CFA non-administered foot,1058
same,unit-time AUC value,[4]; CFA non-administered foot,1.470 AUC/min
same,ED50 of the anti-nociceptive activity calculated using the unit-time AUC value,"[4]; CFA non-administered foot, oral",9.849 mg/kg
same,lasting time of anti-nociceptive activity,"[4]; mice, CFA model, oral",720 min
same,peak of anti-nociceptive activity after administration,"[4]; mice, CFA model, oral",300 min
same,total AUC value and unit-time AUC value of the CFA administered foot as part of those of the CFA non-administered foot,"[4]; mice, CFA model, oral",approximately 60%
same,anti-nociceptive activity compared with morphine and oxycodone,"[5]; knee osteoarthritis model, FIGS. 77 and 78","stronger than morphine, and stronger than or equal to oxycodone"
same,"activity lasting-time, times longer than for morphine","[5]; rat, MSU knee model, oral",1.4 times
same,activity peak,"[5]; rat, MSU knee model, oral",180 min
same,AUC of time-course variation of anti-nociceptive activity,"[5]; rat, MSU knee model, oral 7.5 mg/kg",6410
same,AUC of time-course variation of anti-nociceptive activity,"[5]; rat, MSU knee model, oral 15 mg/kg",8133
same,AUC of time-course variation of anti-nociceptive activity,"[5]; rat, MSU knee model, oral 30 mg/kg",24702
same,ED50 value at activity peak,"[5]; rat, MSU knee model, oral, %MPE, range in parentheses",15.84 (11.24-22.32) mg/Kg
same,"anti-nociceptive activities, times stronger than for morphine","[5]; rat, MSU knee model, oral, from ED50 of AUCs",~2.5 times
same,ED50 of AUCs,"[5]; rat, MSU knee model, oral, range in parentheses",34.10 (3.36-345.8) mg/kg
same,"anti-nociceptive activity lasting-times, times longer than for morphine","[5]; rat, MSU knee model, oral, stated after ED50 at activity peak",2.4 times
same,activity lasting-time,"[5]; rat, MSU knee model, orally administered",420 min
Iminoethyl-[Tyr]-[D-Met(O)]-[Phe]-[N-MeβAla]-NHCH3 [SS8225-07],lasting period of anti-nociceptive activities,[1]; p.o.,more than 12 hours
same,lasting period of anti-nociceptive activities,[1]; s.c.,more than 6 hours
